Experimental data from patent US20200129492A1, “TREATMENT OF CANCER WITH DIHYDROPYRIDINES” (MENRI GROUP LTD., priority 2017, published 2020).
At least one compound was matched to its structure with a doubt left.

Legend:
A549 lung cancer cells [1] = assay: Intracellular free calcium, Fura-2-AM fluorescence measurement; assay type: cell-based
A549 lung cancer cells [2] = assay: XTT assay, cell proliferation 48 hours after addition; assay type: cell-based; details: increasing concentrations
Procedure: An XTT assay was performed 48 hours after the addition of nitrendipine at increasing concentrations. The cell proliferation was then calculated. Results are representative of at least three independent experiments. The results are illustrated in FIG. 1B. […] Without limitation by theory, it is theorized that nitrendipine lethally flooded the cells with calcium at the noted concentrations.
(§1) An XTT assay was performed 48 hours after the addition of nicardipine at increasing concentrations. The cell proliferation was then calculated. Results are representative of at least three independent experiments. The results are illustrated in FIG. 2B. […] Without limitation by theory, it is theorized that the nicardipine-initiated block of the entry of extracellular free calcium inhibits the cell's ability to undergo or successfully finish cytokinesis, and this may lead to cell death.
as §1, with “nisoldipine” for “nicardipine”, “4B.” for “2B.”, “nisoldipine-initiated” for “nicardipine-initiated”, “cytokinesis” for “cytokinesis,”
The cell proliferation was then calculated. […]

## COC(=O)C1=C(C)NC(C)=C(C(=O)OCCN(C)Cc2ccccc2)C1c1cccc([N+](=O)[O-])c1 (stereo not drawn) [Nicardipine, 2-[benzyl(methyl)amino]ethylmethyl-2,6-dimethyl-4-(3-nitrophenyl)-1,4-dihydropyridine-3,5-dicarboxylate]
A549 lung cancer cells [1]; 5 μM and 10 μM treatments
  effect on intracellular free calcium: blocks the influx of extracellular calcium
A549 lung cancer cells [1]; consecutive treatments with nitrendipine and nicardipine, 20 μM each
  effect on intracellular free calcium: resulted in a block of the influx of extracellular calcium triggered by nitrendipine
A549 lung cancer cells [2]
  percentage of cell growth: decreases as the concentration of nicardipine is increased
